Experimental data taken from patent US10342766B2, “6-shogaol derivatives and activities thereof” (North Carolina Agricultural and Technical State University, priority 2017, dated 2019).
Some results were stated once for a whole list of compounds, not compound by compound. At least one compound was matched to its structure with a doubt left.

Test system: Nrf2
Experiment: Nrf2 reporter activity by Tg(gstp1:GFP) fluorescence in transgenic zebrafish embryos
Format: in vivo
Conditions: 24-hour treatment from 1 dpf to 2 dpf
Procedure: Zebrafish AB transgenic strains Tg(gstp1:GFP) were maintained in a Pentair Aquatic Ecosystem (Apopka, Fla., United States of America) fish housing unit with 14 h light/10 h dark cycle (see Tsujita, T., Li, L., Nakajima, H., Iwamoto, N., Nakajima-Takagi, Y., Ohashi, K., Kawakami, K., Kumagai, Y., Freeman, B. A., Yamamoto, M., and Kobayashi, M. (2011) “Nitro-fatty acids and cyclopentenone prostaglandins share strategies to activate the Keap1-Nrf2 system: a study using green fluorescent protein transgenic zebrafish.” Genes Cells 16, 46-57). The fish embryos were maintained at 28.5° C. in 0.3× Danieau's solution (19.3 mM NaCl, 0.23 mM KCl, 0.13 mM MgSO4, 0.2 mM Ca(NO3)2, 1.7 mM HEPES, pH 7.0) containing 30 μg/ml phenylthiourea (PTU) to inhibit pigmentation. Tg(gstp1:GFP) cross with AB wild-type strain fluorescence embryos were used for the experiment. Zebrafish embryos were washed, dechorionated and anaesthetized before observations, and fluorescence imaging for analysis.
Transgenic zebrafish embryos at 1 day-post-fertilization (dpf) were dechorionated and placed in Petri dishes containing different chemicals diluted in 0.3× Danieau's solution containing PTU. The chemical stock was dissolved in DMSO at 5 mM concentration.
An Olympus MVX10 Fluorescence Macroscope (Olympus, Center Valley, Pa., United States of America) equipped with a Hamamatsu C9300-221 high-speed digital CCD camera (Hamamatsu City, Japan) was used for fluorescence microscopy. Tg(gstp1:GFP) fluorescent embryos were anaesthetized in tricaine and imaged at 2 dpf. MetaMorph Basic software (Olympus, Center Valley, Pa., United States of America) was used for image acquisition and analysis.
Quantification of Nrf2 Reporter Activity by Tg(gstp1:
GFP) Fluoresence in Zebrafish Model. The fluorescence intensity of the olfactory neural epithelia was quantitated using MetaMorph Basic software. In brief, GFP expression in the olfactory regions of Tg(gstp1:GFP) embryos treated with various chemicals was measured after 24-hour treatment from 1 dpf to 2 dpf. The GFP induction was detectable by fluorescence signal at the area of the olfactory epithelia in the anterior of the head region, the intensity was measured using an area of a circle of 60 pixel diameter of the fluorescence olfactory epithelia subtracted by a background non-fluorescence area next to the zebrafish embryo. Both the left and right olfactory epithelia were measured to give an average fluorescence value. The values are an average of measurements from at least 10 embryos.

SMILES	Nrf2 activation in Tg(gstp1:GFP) zebrafish embryos, in words
CCCCC/C=C/C(=O)/C=C/c1ccc(O)c(O)c1 [Compound 26]	potent Nrf2 activators
CCCCCCCC(=O)/C=C/c1ccc(O)c(O)c1 [Compound 27]	potent Nrf2 activators
CCCCCCCC(=O)CCc1ccc(O)c(O)c1 [Compound 25]	potent Nrf2 activators
CCCCC/C=C/C(=O)/C=C/c1ccc(O)c(OC)c1 [Compound 18]	potent Nrf2 activators
